Measurements reported in PubChem BioAssay AID493246 (Drosophila RNAi Screening Center, 2011)
The screen tested about 21,000 reagents; shown is a random part of those that have a named target and a result. In the full data, 429 (2%) were called active. 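Values are raw and not normalised between plates; calls rest on per-plate z-scores that were not deposited.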 The numbers tell different reagents against one gene apart. Names joined by + are all predicted targets of the reagent. Not stated in the record: the amount of reagent, the time to read-out.

Aim: 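Genome-wide search for dsRNAs that reduce cell number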 (primary screen)
Cell system: Drosophila Kc and S2R+ cells
Reagents: long dsRNA against Drosophila genes
Read-out: 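Raw, unnormalised count of remaining cells in each well; per-plate z-scores of cell number underlie the calls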
Scale: Kc cell number and S2R+ cell number: higher = more cells remaining
Active means: 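Active when the per-plate z-score of cell number is 3 or more in the direction of fewer cells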

target,reagent no.,"Kc cell number, rep 1","Kc cell number, rep 2","S2R+ cell number, rep 1","S2R+ cell number, rep 2",outcome
CG11912 (GeneID 33205),1,1.21e6,1.42e6,1.06e6,1.04e6,inactive
Arp53D (GeneID 36879),1,1.61e6,1.63e6,1.29e6,1.46e6,inactive
ct (GeneID 44540),1,1.04e6,1.08e6,7.87e5,9.20e5,inactive
ND-18 (GeneID 32936),1,1.50e6,1.51e6,8.50e5,9.43e5,inactive
mei-P26 (GeneID 45775),1,1.28e5,,3.53e5,,active
sens-2 (GeneID 33957),1,1.45e6,1.31e6,1.13e6,1.23e6,inactive
sens-2 (GeneID 33957),2,1.45e6,1.37e6,1.08e6,1.27e6,inactive
RluA-1 (GeneID 34438),1,1.77e6,1.80e6,1.19e6,1.45e6,inactive
RluA-1 (GeneID 34438),2,1.72e6,1.68e6,1.21e6,1.40e6,inactive
CG13949 (GeneID 33266),1,1.48e6,1.50e6,1.01e6,1.17e6,inactive
ymp (GeneID 43088),1,1.40e6,1.70e6,1.11e6,9.52e5,inactive
ymp (GeneID 43088),2,1.55e6,1.44e6,1.00e6,1.09e6,inactive
TyrR (GeneID 42136),1,1.14e6,1.19e6,8.44e5,9.93e5,inactive
Mnr (GeneID 33098),1,1.56e6,1.52e6,1.12e6,1.23e6,inactive
Mnr (GeneID 33098),2,1.41e6,1.37e6,1.01e6,1.16e6,inactive
Cp7Fb (GeneID 31785),1,1.42e6,1.43e6,1.08e6,1.16e6,inactive
CG11037 (GeneID 40317),1,1.33e6,1.46e6,1.33e6,1.34e6,inactive
Cpr78E (GeneID 40408),1,1.40e6,1.34e6,1.30e6,1.39e6,inactive
CG4631 (GeneID 34988),1,1.50e6,1.53e6,1.11e6,1.20e6,inactive
CG7065 (GeneID 31844),1,5.38e5,,8.33e5,,inactive
Cyp28d2 (GeneID 33748),1,1.66e6,1.54e6,1.25e6,1.35e6,inactive
kto (GeneID 44830),1,1.44e6,1.50e6,1.28e6,1.28e6,inactive
CG8326 (GeneID 32738),1,1.62e6,1.65e6,1.02e6,1.19e6,inactive
mri (GeneID 38028),1,1.32e6,1.34e6,1.16e6,1.20e6,inactive
CG10185 (GeneID 41953),1,1.26e6,1.33e6,1.19e6,1.32e6,inactive
CG17996 + Tsen2,1,1.45e6,1.61e6,1.23e6,1.34e6,inactive
Nubpl (GeneID 35452),1,1.32e6,1.37e6,1.09e6,1.19e6,inactive
CG6403 (GeneID 43220),1,1.59e6,1.65e6,9.52e5,1.14e6,inactive
CG11322 (GeneID 33949),1,1.70e6,1.84e6,1.14e6,1.31e6,inactive
eIF4E3 (GeneID 38923),1,1.30e6,1.39e6,1.18e6,1.12e6,inactive
mub (GeneID 40436),1,1.78e6,1.88e6,1.19e6,1.29e6,inactive
CG13731 (GeneID 39938),1,1.47e6,1.53e6,1.29e6,1.48e6,inactive
CG1774 (GeneID 43722),1,4.93e5,,7.56e5,,inactive
CG33120 (GeneID 326260),1,1.31e6,1.30e6,1.32e6,1.29e6,inactive
Bfc (GeneID 38138),1,1.22e6,1.30e6,1.01e6,1.21e6,inactive
kune (GeneID 35504),1,1.61e6,1.53e6,1.19e6,1.28e6,inactive
CG42490 (retired record) (GeneID 8674118),1,1.52e6,1.55e6,9.71e5,1.20e6,inactive
Miro (GeneID 42845),1,1.55e6,1.58e6,1.27e6,1.33e6,inactive
Eogt (GeneID 33424),1,1.34e6,1.43e6,1.03e6,9.79e5,inactive
Pngl (GeneID 35527),1,1.57e6,1.67e6,1.37e6,1.51e6,inactive

Part of the list above, set out differently:
{"target": "Mnr (GeneID 33098)", "reagent no.": 2, "Kc cell number, rep 1": 1.41e6, "Kc cell number, rep 2": 1.37e6, "S2R+ cell number, rep 1": 1.01e6, "S2R+ cell number, rep 2": 1.16e6, "outcome": "inactive"}
{"target": "Cp7Fb (GeneID 31785)", "reagent no.": 1, "Kc cell number, rep 1": 1.42e6, "Kc cell number, rep 2": 1.43e6, "S2R+ cell number, rep 1": 1.08e6, "S2R+ cell number, rep 2": 1.16e6, "outcome": "inactive"}
{"target": "CG11037 (GeneID 40317)", "reagent no.": 1, "Kc cell number, rep 1": 1.33e6, "Kc cell number, rep 2": 1.46e6, "S2R+ cell number, rep 1": 1.33e6, "S2R+ cell number, rep 2": 1.34e6, "outcome": "inactive"}
{"target": "Cpr78E (GeneID 40408)", "reagent no.": 1, "Kc cell number, rep 1": 1.40e6, "Kc cell number, rep 2": 1.34e6, "S2R+ cell number, rep 1": 1.30e6, "S2R+ cell number, rep 2": 1.39e6, "outcome": "inactive"}
{"target": "CG4631 (GeneID 34988)", "reagent no.": 1, "Kc cell number, rep 1": 1.50e6, "Kc cell number, rep 2": 1.53e6, "S2R+ cell number, rep 1": 1.11e6, "S2R+ cell number, rep 2": 1.20e6, "outcome": "inactive"}
{"target": "CG7065 (GeneID 31844)", "reagent no.": 1, "Kc cell number, rep 1": 5.38e5, "S2R+ cell number, rep 1": 8.33e5, "outcome": "inactive"}
{"target": "Cyp28d2 (GeneID 33748)", "reagent no.": 1, "Kc cell number, rep 1": 1.66e6, "Kc cell number, rep 2": 1.54e6, "S2R+ cell number, rep 1": 1.25e6, "S2R+ cell number, rep 2": 1.35e6, "outcome": "inactive"}
{"target": "kto (GeneID 44830)", "reagent no.": 1, "Kc cell number, rep 1": 1.44e6, "Kc cell number, rep 2": 1.50e6, "S2R+ cell number, rep 1": 1.28e6, "S2R+ cell number, rep 2": 1.28e6, "outcome": "inactive"}
{"target": "CG8326 (GeneID 32738)", "reagent no.": 1, "Kc cell number, rep 1": 1.62e6, "Kc cell number, rep 2": 1.65e6, "S2R+ cell number, rep 1": 1.02e6, "S2R+ cell number, rep 2": 1.19e6, "outcome": "inactive"}

Further results follow.
target,reagent no.,"Kc cell number, rep 1","Kc cell number, rep 2","S2R+ cell number, rep 1","S2R+ cell number, rep 2",outcome
CG12071 (GeneID 43660),1,1.20e6,1.00e6,4.69e5,5.74e5,active
Fit1 (GeneID 38488),1,1.36e6,1.51e6,1.26e6,1.14e6,inactive
CG17707 (GeneID 5740408),1,1.38e6,1.32e6,1.02e6,1.05e6,inactive
tef (GeneID 36920),1,1.47e6,1.47e6,1.33e6,1.30e6,inactive
Tak1 (GeneID 39659),1,1.28e6,1.60e6,1.14e6,1.22e6,inactive
Tak1 (GeneID 39659),2,1.63e6,1.65e6,1.09e6,1.23e6,inactive
Tak1 (GeneID 39659),3,1.83e6,1.88e6,1.16e6,1.33e6,inactive
tutl (GeneID 46015),1,1.47e6,1.52e6,1.11e6,1.24e6,inactive
tutl (GeneID 46015),2,1.57e6,1.61e6,1.15e6,1.27e6,inactive
tutl (GeneID 46015),3,1.49e6,1.52e6,1.06e6,1.24e6,inactive
Cyt-b5-r (GeneID 35008),1,1.65e6,1.69e6,1.38e6,1.55e6,inactive
CycD (GeneID 32551),1,1.42e6,1.45e6,6.29e5,7.18e5,active
CG14329 (GeneID 42116),1,1.55e6,1.48e6,1.18e6,1.25e6,inactive
RluA-2 (GeneID 34440),1,1.27e6,1.46e6,1.24e6,1.31e6,inactive
BomBc2 (GeneID 37102),1,1.49e6,1.54e6,1.10e6,1.22e6,inactive
Qtzl (GeneID 318990),1,1.62e6,1.67e6,1.03e6,1.18e6,inactive
CG15365 (GeneID 31829),1,7.51e5,8.37e5,4.75e5,5.25e5,active
CG34289 (GeneID 5740640),1,1.24e6,1.52e6,1.09e6,1.12e6,inactive
CG7369 (GeneID 2768961),1,1.20e6,1.39e6,1.00e6,1.06e6,inactive
CG10051 (GeneID 37222),1,1.47e6,1.70e6,1.20e6,1.38e6,inactive
CG33136 (GeneID 318894),1,6.05e5,,6.50e5,,inactive
CG32829 (GeneID 318235),1,1.60e6,1.68e6,1.09e6,1.24e6,inactive
Lamtor5 (GeneID 31137),1,1.51e6,1.55e6,1.07e6,1.18e6,inactive
CG10947 (GeneID 35309),1,1.36e6,1.43e6,1.31e6,1.28e6,inactive
CadN (GeneID 35070),1,1.68e6,1.76e6,1.24e6,1.40e6,inactive
sing (GeneID 32644),1,1.50e6,1.50e6,1.13e6,1.15e6,inactive
CG12964 (GeneID 36714),1,1.72e6,1.73e6,1.23e6,1.41e6,inactive
Sdr (GeneID 41809),1,1.47e6,1.53e6,1.29e6,1.35e6,inactive
wmd (GeneID 37727),1,1.39e6,1.44e6,1.16e6,1.25e6,inactive
CG6277 (GeneID 43251),1,1.40e6,1.39e6,9.97e5,1.10e6,inactive
CG2246 (GeneID 43637),1,5.24e5,,8.73e5,,inactive
HDAC4 (GeneID 32278),1,1.67e6,1.62e6,1.11e6,1.22e6,inactive
VhaAC45 (GeneID 35944),1,8.63e5,1.02e6,8.31e5,9.36e5,inactive
east (GeneID 46006),1,1.29e6,1.38e6,7.98e5,9.20e5,inactive
stops (GeneID 43683),1,1.53e6,1.56e6,1.05e6,1.21e6,inactive
stops (GeneID 43683),2,1.50e6,1.52e6,1.06e6,1.19e6,inactive
stops (GeneID 43683),3,1.51e6,1.53e6,1.14e6,1.22e6,inactive
